This is an account of results in PMC8338941.

Sequences of proteins named here, by UniProt entry; tags and fusion partners are left off. A change or cut given only in a name is not applied to a line headed by its entry.
UniProt P53742: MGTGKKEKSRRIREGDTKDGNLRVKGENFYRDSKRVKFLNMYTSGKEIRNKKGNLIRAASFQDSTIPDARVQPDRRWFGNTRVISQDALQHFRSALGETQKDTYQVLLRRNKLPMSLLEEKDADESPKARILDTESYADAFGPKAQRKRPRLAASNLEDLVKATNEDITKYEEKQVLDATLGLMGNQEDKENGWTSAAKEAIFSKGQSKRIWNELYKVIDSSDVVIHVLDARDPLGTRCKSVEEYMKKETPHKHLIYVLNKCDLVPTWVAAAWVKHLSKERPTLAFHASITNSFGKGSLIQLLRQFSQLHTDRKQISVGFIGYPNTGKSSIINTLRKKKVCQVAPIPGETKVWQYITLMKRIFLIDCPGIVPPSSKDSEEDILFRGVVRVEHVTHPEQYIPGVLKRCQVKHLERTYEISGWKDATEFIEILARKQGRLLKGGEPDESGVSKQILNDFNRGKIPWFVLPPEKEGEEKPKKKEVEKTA
UniProt P38789: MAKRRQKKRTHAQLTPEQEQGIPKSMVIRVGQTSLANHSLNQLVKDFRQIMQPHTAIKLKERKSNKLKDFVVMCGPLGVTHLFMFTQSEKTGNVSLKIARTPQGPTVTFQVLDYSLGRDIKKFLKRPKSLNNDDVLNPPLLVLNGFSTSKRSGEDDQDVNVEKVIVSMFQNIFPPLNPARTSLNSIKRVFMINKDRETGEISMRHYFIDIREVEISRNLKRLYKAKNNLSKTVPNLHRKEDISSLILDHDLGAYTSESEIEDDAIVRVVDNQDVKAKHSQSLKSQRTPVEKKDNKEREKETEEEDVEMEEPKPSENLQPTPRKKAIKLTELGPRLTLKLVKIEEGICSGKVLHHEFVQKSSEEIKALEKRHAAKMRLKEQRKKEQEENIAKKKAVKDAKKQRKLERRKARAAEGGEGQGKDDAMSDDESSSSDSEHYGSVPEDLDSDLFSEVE
UniProt Q04373: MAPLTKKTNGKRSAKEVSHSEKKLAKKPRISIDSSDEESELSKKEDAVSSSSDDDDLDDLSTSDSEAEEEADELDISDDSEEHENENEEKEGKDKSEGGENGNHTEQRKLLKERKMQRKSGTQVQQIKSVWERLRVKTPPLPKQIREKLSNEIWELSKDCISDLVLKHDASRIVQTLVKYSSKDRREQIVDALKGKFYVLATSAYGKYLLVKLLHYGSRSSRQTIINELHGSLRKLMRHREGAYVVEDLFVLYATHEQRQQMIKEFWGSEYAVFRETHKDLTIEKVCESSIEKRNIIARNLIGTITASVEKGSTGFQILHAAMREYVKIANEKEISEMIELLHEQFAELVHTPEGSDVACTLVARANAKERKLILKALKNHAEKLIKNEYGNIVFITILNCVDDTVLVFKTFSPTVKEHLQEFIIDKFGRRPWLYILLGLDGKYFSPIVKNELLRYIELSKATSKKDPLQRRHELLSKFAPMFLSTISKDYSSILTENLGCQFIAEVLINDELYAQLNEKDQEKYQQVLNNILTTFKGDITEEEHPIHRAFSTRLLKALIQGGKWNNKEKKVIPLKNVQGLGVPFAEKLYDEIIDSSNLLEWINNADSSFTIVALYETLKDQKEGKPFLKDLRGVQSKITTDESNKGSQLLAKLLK
UniProt Q12019: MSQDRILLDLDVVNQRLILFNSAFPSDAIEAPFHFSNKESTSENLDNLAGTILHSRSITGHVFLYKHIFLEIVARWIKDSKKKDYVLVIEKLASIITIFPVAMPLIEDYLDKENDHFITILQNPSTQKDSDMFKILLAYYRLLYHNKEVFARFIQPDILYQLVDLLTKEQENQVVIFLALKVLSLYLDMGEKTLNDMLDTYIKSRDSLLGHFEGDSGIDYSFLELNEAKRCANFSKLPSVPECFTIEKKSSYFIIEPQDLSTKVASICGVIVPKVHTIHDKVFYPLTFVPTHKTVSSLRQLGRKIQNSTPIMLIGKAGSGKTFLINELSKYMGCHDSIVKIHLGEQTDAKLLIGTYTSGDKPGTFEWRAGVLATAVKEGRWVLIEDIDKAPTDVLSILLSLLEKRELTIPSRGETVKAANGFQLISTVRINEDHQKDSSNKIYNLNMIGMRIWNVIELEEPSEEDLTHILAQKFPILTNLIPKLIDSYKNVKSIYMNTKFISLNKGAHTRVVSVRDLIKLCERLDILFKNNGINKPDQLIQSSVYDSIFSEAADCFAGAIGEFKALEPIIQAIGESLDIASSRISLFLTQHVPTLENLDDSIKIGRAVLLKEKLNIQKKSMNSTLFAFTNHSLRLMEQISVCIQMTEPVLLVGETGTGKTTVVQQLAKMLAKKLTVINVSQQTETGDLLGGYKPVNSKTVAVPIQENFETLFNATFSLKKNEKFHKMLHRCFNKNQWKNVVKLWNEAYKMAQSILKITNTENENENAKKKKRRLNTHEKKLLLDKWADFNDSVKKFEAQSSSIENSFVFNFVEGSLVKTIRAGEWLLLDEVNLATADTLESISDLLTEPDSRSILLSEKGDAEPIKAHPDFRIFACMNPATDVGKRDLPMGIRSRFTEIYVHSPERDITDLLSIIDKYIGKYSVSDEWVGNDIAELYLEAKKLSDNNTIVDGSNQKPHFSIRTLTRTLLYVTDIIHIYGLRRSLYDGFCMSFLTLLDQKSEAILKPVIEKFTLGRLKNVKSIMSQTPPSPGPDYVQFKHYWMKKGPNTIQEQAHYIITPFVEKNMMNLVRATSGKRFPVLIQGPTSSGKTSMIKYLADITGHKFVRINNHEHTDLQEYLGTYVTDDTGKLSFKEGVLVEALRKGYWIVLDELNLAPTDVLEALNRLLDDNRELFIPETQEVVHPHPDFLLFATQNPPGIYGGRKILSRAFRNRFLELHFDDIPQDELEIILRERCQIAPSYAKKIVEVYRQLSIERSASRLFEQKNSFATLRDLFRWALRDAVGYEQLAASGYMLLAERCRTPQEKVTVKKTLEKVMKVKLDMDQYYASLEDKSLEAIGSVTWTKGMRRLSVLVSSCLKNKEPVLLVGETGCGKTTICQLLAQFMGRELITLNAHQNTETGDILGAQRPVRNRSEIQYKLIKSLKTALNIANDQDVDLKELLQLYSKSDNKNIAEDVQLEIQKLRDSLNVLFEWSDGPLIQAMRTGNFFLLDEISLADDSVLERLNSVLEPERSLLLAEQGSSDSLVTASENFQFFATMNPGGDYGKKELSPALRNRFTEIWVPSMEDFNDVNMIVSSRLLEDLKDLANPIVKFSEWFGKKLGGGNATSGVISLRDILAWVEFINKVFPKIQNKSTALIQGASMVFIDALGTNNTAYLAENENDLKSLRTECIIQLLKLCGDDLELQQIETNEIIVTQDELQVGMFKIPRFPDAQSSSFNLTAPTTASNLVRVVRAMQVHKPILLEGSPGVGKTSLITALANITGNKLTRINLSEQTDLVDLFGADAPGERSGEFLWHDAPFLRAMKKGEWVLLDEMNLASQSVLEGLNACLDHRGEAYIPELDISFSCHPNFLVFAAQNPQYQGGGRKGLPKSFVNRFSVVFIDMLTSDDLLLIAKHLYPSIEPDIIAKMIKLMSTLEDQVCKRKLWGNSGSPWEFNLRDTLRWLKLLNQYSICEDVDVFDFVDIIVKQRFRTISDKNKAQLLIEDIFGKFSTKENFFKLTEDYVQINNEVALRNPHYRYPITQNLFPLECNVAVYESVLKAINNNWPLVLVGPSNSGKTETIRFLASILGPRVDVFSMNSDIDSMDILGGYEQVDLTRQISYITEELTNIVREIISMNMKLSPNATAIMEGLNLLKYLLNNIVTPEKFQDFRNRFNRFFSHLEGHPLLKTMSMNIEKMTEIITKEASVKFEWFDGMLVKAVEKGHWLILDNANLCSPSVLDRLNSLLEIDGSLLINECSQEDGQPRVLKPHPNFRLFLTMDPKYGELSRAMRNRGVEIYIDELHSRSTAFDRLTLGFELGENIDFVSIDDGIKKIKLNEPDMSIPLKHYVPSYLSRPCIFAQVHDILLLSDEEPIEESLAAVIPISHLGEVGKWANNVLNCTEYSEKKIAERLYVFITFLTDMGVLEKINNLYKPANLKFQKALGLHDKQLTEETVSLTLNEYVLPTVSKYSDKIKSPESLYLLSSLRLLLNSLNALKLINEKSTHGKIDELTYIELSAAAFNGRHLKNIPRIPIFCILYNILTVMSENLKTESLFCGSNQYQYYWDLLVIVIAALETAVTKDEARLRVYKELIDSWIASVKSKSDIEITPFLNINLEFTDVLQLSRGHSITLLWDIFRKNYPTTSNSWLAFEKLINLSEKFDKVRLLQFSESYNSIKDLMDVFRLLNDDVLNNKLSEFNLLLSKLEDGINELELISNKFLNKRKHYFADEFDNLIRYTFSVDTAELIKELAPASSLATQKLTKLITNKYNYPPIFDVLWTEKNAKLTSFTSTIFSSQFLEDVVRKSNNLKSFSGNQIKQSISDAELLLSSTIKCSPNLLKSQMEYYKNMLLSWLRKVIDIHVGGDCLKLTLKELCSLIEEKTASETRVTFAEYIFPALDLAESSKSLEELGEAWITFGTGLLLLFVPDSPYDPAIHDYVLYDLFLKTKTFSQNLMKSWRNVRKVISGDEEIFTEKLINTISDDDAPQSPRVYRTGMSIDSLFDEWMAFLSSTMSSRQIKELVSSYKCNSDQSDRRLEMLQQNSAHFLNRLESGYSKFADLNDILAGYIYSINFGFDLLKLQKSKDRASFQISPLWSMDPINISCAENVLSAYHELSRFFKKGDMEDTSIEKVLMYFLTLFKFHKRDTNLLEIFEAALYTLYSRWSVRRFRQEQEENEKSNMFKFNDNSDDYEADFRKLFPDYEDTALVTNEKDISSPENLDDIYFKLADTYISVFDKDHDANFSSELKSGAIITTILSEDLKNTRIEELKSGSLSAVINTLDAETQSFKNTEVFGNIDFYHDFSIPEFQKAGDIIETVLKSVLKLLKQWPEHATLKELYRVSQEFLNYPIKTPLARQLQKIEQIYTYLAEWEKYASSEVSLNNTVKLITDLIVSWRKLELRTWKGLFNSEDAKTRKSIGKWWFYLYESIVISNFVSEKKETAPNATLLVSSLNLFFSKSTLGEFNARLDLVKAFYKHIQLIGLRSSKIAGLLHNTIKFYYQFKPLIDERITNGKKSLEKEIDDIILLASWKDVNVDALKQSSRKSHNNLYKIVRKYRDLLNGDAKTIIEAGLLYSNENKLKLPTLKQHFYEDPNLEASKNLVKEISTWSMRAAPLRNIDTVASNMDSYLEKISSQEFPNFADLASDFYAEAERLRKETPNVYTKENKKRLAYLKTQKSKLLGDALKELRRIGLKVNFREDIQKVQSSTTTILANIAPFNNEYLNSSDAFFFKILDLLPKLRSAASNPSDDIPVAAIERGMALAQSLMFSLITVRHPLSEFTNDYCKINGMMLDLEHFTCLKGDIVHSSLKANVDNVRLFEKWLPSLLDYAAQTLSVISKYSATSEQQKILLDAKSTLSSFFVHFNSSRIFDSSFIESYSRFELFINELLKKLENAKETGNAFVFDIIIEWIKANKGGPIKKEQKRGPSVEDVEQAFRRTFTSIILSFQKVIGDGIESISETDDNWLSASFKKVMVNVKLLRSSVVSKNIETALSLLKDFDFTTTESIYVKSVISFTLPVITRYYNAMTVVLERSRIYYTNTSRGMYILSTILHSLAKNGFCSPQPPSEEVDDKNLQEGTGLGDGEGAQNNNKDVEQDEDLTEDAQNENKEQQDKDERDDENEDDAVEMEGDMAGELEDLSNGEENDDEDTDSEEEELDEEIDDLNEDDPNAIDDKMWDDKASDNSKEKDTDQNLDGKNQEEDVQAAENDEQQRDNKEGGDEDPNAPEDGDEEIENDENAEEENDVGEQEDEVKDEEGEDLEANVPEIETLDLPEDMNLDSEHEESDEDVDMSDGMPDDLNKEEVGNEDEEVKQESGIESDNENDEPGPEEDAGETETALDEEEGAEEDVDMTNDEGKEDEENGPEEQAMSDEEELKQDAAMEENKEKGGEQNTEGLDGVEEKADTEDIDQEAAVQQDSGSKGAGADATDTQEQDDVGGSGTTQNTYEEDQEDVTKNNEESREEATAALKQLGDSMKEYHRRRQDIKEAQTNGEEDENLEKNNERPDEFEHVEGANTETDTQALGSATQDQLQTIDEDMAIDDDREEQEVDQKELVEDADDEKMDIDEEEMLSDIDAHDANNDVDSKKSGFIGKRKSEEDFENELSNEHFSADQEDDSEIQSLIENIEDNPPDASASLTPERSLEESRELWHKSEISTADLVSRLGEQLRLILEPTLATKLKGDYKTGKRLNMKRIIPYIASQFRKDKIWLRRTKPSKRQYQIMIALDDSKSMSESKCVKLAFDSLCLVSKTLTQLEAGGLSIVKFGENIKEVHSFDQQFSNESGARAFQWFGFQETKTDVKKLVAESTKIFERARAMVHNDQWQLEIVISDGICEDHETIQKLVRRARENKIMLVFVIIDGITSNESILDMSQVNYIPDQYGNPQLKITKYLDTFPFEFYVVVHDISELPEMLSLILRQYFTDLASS

In one test the target is Nog2-TAP (S. cerevisiae) (UniProt P53742). Nature of the test: co-IP; Tandem affinity purification (TAP) of 60S pre-ribosomal particles via TAP-tagged bait proteins from yeast; calmodulin eluates separated on NuPAGE 4-12% Bis-Tris gels, Western blotting.
Another test concerns the target T1, Arx1-TAP (S. cerevisiae) (UniProt Q03862).
T1 sequence: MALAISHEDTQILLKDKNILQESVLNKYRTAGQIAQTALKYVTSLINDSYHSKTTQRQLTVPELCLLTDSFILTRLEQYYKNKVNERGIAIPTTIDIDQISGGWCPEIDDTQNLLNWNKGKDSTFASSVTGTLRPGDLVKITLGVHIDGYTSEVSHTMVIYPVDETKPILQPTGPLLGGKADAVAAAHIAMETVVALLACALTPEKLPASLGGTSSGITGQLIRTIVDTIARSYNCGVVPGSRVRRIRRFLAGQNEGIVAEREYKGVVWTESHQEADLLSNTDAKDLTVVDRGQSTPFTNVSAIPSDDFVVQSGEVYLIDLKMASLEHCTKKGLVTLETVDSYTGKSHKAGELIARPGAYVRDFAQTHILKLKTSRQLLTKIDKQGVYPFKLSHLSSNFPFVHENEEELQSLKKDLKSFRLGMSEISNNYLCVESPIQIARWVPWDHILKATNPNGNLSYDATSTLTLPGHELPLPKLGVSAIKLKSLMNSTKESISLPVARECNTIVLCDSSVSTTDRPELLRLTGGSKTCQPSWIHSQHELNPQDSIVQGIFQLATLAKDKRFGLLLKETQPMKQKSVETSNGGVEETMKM
The description is as above.

The next test deals with Ssf1-TAP (S. cerevisiae) (UniProt P38789). Described as above.
Test [1] concerns the target T2, Kre35-TAP (S. cerevisiae) (UniProt P53145).
T2 sequence: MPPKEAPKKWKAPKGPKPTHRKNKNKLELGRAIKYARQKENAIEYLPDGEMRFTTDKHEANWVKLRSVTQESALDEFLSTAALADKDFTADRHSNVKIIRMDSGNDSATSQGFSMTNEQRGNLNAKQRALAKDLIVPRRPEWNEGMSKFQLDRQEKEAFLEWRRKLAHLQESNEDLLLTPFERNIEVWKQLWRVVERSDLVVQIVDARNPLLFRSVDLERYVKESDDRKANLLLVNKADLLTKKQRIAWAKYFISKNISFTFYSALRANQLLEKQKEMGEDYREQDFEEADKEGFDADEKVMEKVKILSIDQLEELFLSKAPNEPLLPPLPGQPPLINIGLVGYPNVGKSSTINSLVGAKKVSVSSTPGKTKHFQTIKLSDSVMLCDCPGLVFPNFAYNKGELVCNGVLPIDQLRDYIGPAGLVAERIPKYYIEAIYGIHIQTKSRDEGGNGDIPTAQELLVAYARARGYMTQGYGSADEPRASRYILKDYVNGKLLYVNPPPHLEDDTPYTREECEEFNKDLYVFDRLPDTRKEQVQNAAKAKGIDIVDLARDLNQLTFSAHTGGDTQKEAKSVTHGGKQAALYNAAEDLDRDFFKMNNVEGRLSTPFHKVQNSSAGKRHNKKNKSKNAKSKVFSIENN
The test is described as above.

The next test concerns the target T3, Nop7-TAP (S. cerevisiae) (UniProt P53261).
T3 sequence: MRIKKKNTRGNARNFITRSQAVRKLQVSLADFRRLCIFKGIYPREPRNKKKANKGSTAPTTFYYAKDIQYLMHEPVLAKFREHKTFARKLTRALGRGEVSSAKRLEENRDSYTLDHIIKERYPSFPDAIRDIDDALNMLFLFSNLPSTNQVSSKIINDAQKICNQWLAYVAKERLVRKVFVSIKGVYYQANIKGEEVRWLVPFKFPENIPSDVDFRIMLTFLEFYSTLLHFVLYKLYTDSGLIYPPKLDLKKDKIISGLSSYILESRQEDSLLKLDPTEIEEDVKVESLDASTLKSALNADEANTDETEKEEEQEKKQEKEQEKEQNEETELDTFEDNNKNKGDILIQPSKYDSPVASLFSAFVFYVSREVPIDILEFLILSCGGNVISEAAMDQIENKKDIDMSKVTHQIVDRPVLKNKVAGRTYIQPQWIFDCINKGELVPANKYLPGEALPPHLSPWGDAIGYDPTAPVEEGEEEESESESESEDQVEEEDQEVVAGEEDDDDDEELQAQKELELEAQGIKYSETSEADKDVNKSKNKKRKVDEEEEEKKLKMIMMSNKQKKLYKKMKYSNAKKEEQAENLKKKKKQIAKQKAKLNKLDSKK
Nature of the test: co-IP; Nop7-TAP particles isolated from WT and puf6∆ cells grown at 20 °C; NuPAGE 4-12% Bis-Tris gel, Silver staining and Western analysis.

The target of another test is uL2 (UniProt P0CX45). As to the kind of experiment: cross-linking; XL-MS of reconstituted Puf6:60S complex; 100 μM purified 60S ribosome with 200 μM Puf6, 20 °C 10 min, 150 mM NaCl, 20 mM HEPES pH7.5, 5 mM MgCl2, 5 mM β-mercaptoethanol; 1 mM DSS-d0/d12, 37 °C 30 min; false discovery rate <5%; both purified.
The target of another test is T4, Rix1-TAP (S. cerevisiae) (UniProt P38883).
T4 sequence: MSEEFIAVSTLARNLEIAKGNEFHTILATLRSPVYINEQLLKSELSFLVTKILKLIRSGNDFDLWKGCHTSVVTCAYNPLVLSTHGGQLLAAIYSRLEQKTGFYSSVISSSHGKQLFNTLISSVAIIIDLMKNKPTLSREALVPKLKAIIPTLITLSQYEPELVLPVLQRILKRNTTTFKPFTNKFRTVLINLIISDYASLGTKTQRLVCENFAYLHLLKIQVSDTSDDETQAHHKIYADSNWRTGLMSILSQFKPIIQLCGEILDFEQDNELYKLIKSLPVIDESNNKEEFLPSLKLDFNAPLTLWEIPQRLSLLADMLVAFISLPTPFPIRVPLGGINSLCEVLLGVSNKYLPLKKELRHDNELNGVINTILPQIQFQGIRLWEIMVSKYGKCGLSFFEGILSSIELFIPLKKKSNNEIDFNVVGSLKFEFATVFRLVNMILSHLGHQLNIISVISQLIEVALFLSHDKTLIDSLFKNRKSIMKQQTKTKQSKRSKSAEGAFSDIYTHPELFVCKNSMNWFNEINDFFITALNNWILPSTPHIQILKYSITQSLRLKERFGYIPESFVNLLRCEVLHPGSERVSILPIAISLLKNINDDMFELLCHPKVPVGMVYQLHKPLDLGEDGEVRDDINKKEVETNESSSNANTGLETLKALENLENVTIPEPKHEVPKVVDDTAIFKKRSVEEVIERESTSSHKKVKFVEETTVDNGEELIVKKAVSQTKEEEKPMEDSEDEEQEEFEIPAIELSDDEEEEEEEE
As to the kind of experiment: co-IP; Tandem affinity purification (TAP) of 60S pre-ribosomal particles via TAP-tagged bait proteins from yeast; calmodulin eluates separated on NuPAGE 4-12% Bis-Tris gels, Western blotting. For orientation: Immunoblotting shows a protein as a band on a membrane.

Another test addresses Puf6-TAP (S. cerevisiae) (UniProt Q04373). Described as above.

No constants are given. Whether binding was seen depends on the method and setting. For part of these data: In cells and extracts the contact can be indirect. Some binding calls cover weakened binding; strength is not graded here.

As for Puf6 (from UniProt Q04373 1-656), the binding result was “no binding” with Nog2-TAP (S. cerevisiae), “no binding” with Arx1-TAP (S. cerevisiae), “binds” in the test with Ssf1-TAP (S. cerevisiae) and “no binding” in test [1].

For Rea1 (from UniProt Q12019 1-4910), the binding result with Nop7-TAP (S. cerevisiae) is on record as “binds”.

With “puf6 R172E R431E (from UniProt Q04373 1-656)”, in the test with Ssf1-TAP (S. cerevisiae), the binding entry is “no binding”.

On to His6-Puf6 (from UniProt Q04373 1-656), for which, in the test with uL2, the binding result is “binds”.

With Nog2 (from UniProt P53742 1-486), the binding entry in the test with Rix1-TAP (S. cerevisiae) is “binds”; in the test with Arx1-TAP (S. cerevisiae), “binds weakly”; with Puf6-TAP (S. cerevisiae), “no binding”; in test [1] it was “no binding”.

Regarding “puf6 Y208E R431E (from UniProt Q04373 1-656)”, the binding result with Ssf1-TAP (S. cerevisiae) is given as “no binding”.
